PubChem BioAssay AID504784, Drosophila RNAi Screening Center | 2011

Purpose: 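Genome-wide knock-down for genes giving too much or too little stored lipid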 (primary screen)
System: Drosophila Kc167 embryonic cells
Reagent: long dsRNA against Drosophila genes, about 250 ng dsRNA per well
Time to read-out: 4 days
Challenge: cells fed 400 µM oleic acid bound to BSA
Read-out: 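Cells imaged and segmented; ratio of lipid droplet area to nuclear area, log-transformed, then normalised as a B-score over the screen; higher means more stored lipid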
Scale: droplet/nuclear area B-score: higher = more stored lipid (overstorage)
In all, the deposit lists about 17,000 reagents; below is a random part of those with a known target gene and a result. 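Each column is one replicate's B-score; the combined score over replicates was not deposited, so single values may mislead.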 Names joined by + are all predicted targets of the reagent. Not all columns of the deposit are shown.

no.	Gene	DRSC id	droplet/nuclear area B-score, replicate 1	droplet/nuclear area B-score, replicate 2
1	Odc2	DRSC07483	-0.0394	-2.8
2	CG32756	DRSC22505	-0.00865	0.654
3	CG32756	DRSC23271	0.718	-0.407
4	IA-2	DRSC00304	2.29	-1.36
5	IA-2	DRSC00652	-0.405	-1.73
6	IA-2	DRSC23335	-0.227	-0.583
7	Tmtc3	DRSC04444	0.732	0.634
8	CG13078	DRSC02182	0.949	0.0111
9	Urm1	DRSC22941	1.2	0.0969
10	CG3739	DRSC15510	0.109	-0.453
11	piwi	DRSC03592	-2.22	-0.789
12	CG17751	DRSC15261	-0.464	-5.3
13	CG17751	DRSC22837	1.47	1.53
14	Ranbp16	DRSC20160	0.446	0.606
15	Tango9	DRSC14173	-0.163	0.0108
16	CG6429	DRSC06986	-1.32	-2.11
17	CG1847	DRSC19810	-0.179	0.884
18	Lon	DRSC11049	-0.4	0.663
19	Cpr64Ac	DRSC08462	-1.21	-1.66
20	SrpRbeta	DRSC21668	-0.707	-0.328
21	CG11409	DRSC18579	0.38	
22	Pgi	DRSC07507	2.39	0.767
23	Hip14	DRSC10570	-1.07	1.96
24	Ugt302E1	DRSC15635	4.38	1.1
25	CG5323	DRSC06929	0.972	0.611
26	CG3515	DRSC00609	-1.23	-0.812
27	Lamtor1	DRSC10183	-0.0347	-0.576
28	cuff	DRSC06315	0.661	1.62
29	CG42296	DRSC00394	-0.336	0.181
30	Kpc2	DRSC07635	-0.607	-2.11
31	CG34109	DRSC02169	-0.0312	-1.97
32	CG34109	DRSC02224	1.92	-0.262
33	CG34109	DRSC02225	1.43	0.379
34	MagR	DRSC20092	4.06	4.06
35	CG11594	DRSC08207	-2.07	0.307
36	CG6209	DRSC06968	-0.573	-1.38
37	eve	DRSC07614	-3.01	0.354
38	Tom7	DRSC05135	0.266	3.22
39	Tom7	DRSC07113	-0.171	1.99
40	Mi-2	DRSC11222	-0.122	2.73
41	CG33491 (retired record) + CG33496 (retired record) + CG33487 (retired record) + 1 more	DRSC22969	-0.829	-1.25
42	CG1636	DRSC18111	0.422	1.33
43	CG7149	DRSC03016	-0.774	-0.439
44	CG4554	DRSC04473	0.11	0.0479
45	CG5742	DRSC06949	-1.08	-0.741
46	mRpL38	DRSC19734	2.01	1.83
47	didum	DRSC07603	-0.916	-1.37
48	VGAT	DRSC07160	0.053	-1.08
49	CG18557	DRSC00524	-0.664	-0.674
50	fan	DRSC10930	0.611	-0.135
51	Ktch	DRSC15094	1.12	-1.44
52	CG5776	DRSC02891		1.2
53	CG13954	DRSC06442	0.319	-1.14
54	Act88F	DRSC14105	-1.24	-0.0336
55	mub	DRSC11896	0.0465	-1.46
56	Lcp65APsi	DRSC08795	0.437	1.91
57	Lcp65APsi	DRSC10342	-0.0785	-0.23
58	CG16749	DRSC15146	-0.285	-1.11
59	CG4119	DRSC17741	0.465	-0.3
60	CG18808	DRSC08539	0.69	0.0995
61	CG12862	DRSC06202	-0.073	-0.45
62	CG1354	DRSC17902	-0.54	-0.633
63	MED25	DRSC14483	0.973	0.483
64	MED25	DRSC22981	2.14	2.42
65	Vps26	DRSC18555	-1.08	3.31
66	Tnpo	DRSC11309	-5.33	0.0286
67	CG32198	DRSC09553	1.16	0.0264
68	Ccp84Ac	DRSC12588	0.598	0.103
69	hpRNA:CR32207	DRSC09616	1.81	-0.235
70	CG13748	DRSC06419	-0.379	0.235
71	Mayo	DRSC14300	-0.214	-0.526
72	ITP	DRSC04222	0.0924	-1.61
73	bon	DRSC16914	1.98	0.00201
74	kuz	DRSC03555	-0.0546	0.0743
75	Ent1	DRSC00330	-0.716	0.811
76	Stacl + CG8179 (retired record)	DRSC07091	4.03	6.56
77	Stacl + CG8179 (retired record)	DRSC23019	0.129	-0.821
78	CG31265	DRSC15745	0.798	-0.0227
79	CG13654	DRSC14654	-1.15	-0.996
80	PK1-R	DRSC16577	-0.414	0.174
81	Vlet	DRSC19845	1.52	-0.201
82	Mks1	DRSC19697	1.12	0.915
83	Ip259	DRSC03352	-3.11	-0.272
84	CG14321	DRSC14800	-1.75	0.0217
85	CG4497	DRSC02754	0.754	1.04
86	CG30159	DRSC04981	-0.339	-0.866
87	SmD3	DRSC07553	1.57	-0.817
88	Loxl2	DRSC04469	-0.00509	-0.659
89	CG14391	DRSC14850	-0.362	1.39
90	mRpL47	DRSC16827	2.17	0.921
91	Mo25	DRSC11224	1.33	-0.287
92	Ifrd1	DRSC00415	0.835	1.51
93	Ifrd1	DRSC00566	0.573	2.52
94	blo	DRSC05937	-0.226	2.19
95	gig	DRSC11351	1.22	1.95
96	Mvl	DRSC16752	0.269	-0.0314
97	RhoGAP92B	DRSC14507	-0.454	-0.535
98	RhoGAP92B	DRSC15637	0.528	-0.174
99	Adgf-E	DRSC05973	1.08	1.95
100	CG17032	DRSC10241	-0.17	-0.239
101	Sema2a	DRSC07551	-0.963	0.384
102	dsx	DRSC12649	3.55	-1.15
103	dsx	DRSC16934	2.31	0.201
104	dsx	DRSC21495	-1.57	0.695
105	PyK	DRSC16806	-2.59	-1.55

11 entries from above, reformatted:
CG6209 [DRSC06968]
- droplet/nuclear area B-score, replicate 1: -0.573
- droplet/nuclear area B-score, replicate 2: -1.38

eve [DRSC07614]
- droplet/nuclear area B-score, replicate 1: -3.01
- droplet/nuclear area B-score, replicate 2: 0.354

Tom7 [DRSC05135]
- droplet/nuclear area B-score, replicate 1: 0.266
- droplet/nuclear area B-score, replicate 2: 3.22

Tom7 [DRSC07113]
- droplet/nuclear area B-score, replicate 1: -0.171
- droplet/nuclear area B-score, replicate 2: 1.99

Mi-2 [DRSC11222]
- droplet/nuclear area B-score, replicate 1: -0.122
- droplet/nuclear area B-score, replicate 2: 2.73

CG33491 (retired record) + CG33496 (retired record) + CG33487 (retired record) + 1 more [DRSC22969]
- droplet/nuclear area B-score, replicate 1: -0.829
- droplet/nuclear area B-score, replicate 2: -1.25

CG1636 [DRSC18111]
- droplet/nuclear area B-score, replicate 1: 0.422
- droplet/nuclear area B-score, replicate 2: 1.33

CG7149 [DRSC03016]
- droplet/nuclear area B-score, replicate 1: -0.774
- droplet/nuclear area B-score, replicate 2: -0.439

CG4554 [DRSC04473]
- droplet/nuclear area B-score, replicate 1: 0.11
- droplet/nuclear area B-score, replicate 2: 0.0479

CG5742 [DRSC06949]
- droplet/nuclear area B-score, replicate 1: -1.08
- droplet/nuclear area B-score, replicate 2: -0.741

mRpL38 [DRSC19734]
- droplet/nuclear area B-score, replicate 1: 2.01
- droplet/nuclear area B-score, replicate 2: 1.83
